Assay results taken from patent US12180228B2 (priority 2019, dated 2024).
At least one structure is not confirmed: it was looked up by name or label, or the drawing left a doubt.

System: five human cancer cell lines (HeLa, A549, MCF7, HCT116, DU-145)
Details: HCT116 or MCF7 cells
Procedure: Cells were grown in media supplemented with fetal bovine serum (FBS) and antibiotics (100 μg/mL penicillin and 100 U/mL streptomycin). Specifically, experiments were performed using the following cell lines and media compositions: HeLa (cervical adenocarcimona) and A549 (lung carcinoma) were grown in RPMI-1640+10% FBS; HCT-116 (colorectal carcinoma) was grown in DMEM+10% FBS; DU-145 (prostate carcinoma) and MCF7 (breast adenocarcinoma) were grown in EMEM+10% FBS. Cells were incubated at 37° C. in a 5% CO2, 95% humidity atmosphere.
Cells were plated at 250 cells/well into duplicate assay plates in 50 μL media into 384-well white, opaque, tissue-culture treated plates and allowed to adhere overnight at 37° C./5% CO2. Compounds were solubilized in DMSO as 1000× stocks and […] was pin-transferred to cells (V&P pin tool mounted on Tecan Freedom Evo MCA96). […] After 72 hours of incubation at 37° C./5% CO2, 10 μL Cell Titer-Glo (Promega) was added to each well and plates were incubated at room temperature for 10 minutes before the luminescence was read on a Tecan M1000 plate reader. […] All compound-treated wells was normalized to the DMSO control averages and expressed as a % of DMSO viability. IC50 values were determined from the dose curves using Spotfire (Perkin Elmer). […]

Q: With `CN1C(=O)[C@@]23C[C@]4(c5ccc(OCCCN=[N+]=[N-])cc5)c5ccccc5N(S(=O)(=O)c5ccccc5)[C@@H]4N2C(=O)[C@]1(C)SS3` [(+)-9d, Epidithiodiketopiperazine Azide] as the compound, how does the “effect of functionalization of model ETP (+)-42 on activity (in words)” value read?
A: The value was “did not impact the activity”.
